# Laboratory results as given in US20080318892A1, “METHODS AND FORMULATIONS FOR PROTECTING CELLS, AND FOR TREATING DISEASES AND CONDITIONS BY OPTIMIZING THE INTRACELLULAR CONCENTRATION OF NAD” (priority 2007, published 2008).
# For at least one compound, name, drawing or mass did not settle the structure.
# Tested on: HITC6 SMC's
# Experiment: SMC health and survival in low serum (1% FBS) after PRPP, phase contrast microscopy
# Assay type: cell-based, human
# Settings: 500 uM PRPP alone, 24 hours in low serum
structure (smiles),measurement,value
"O=P(O)(O)OC[C@H]1OC(OP(=O)(O)OP(=O)(O)O)[C@H](O)[C@@H]1O (stereo partly shown) [PRPP, 5-phosphoribosyl-pyrophosphate]",protection from cell death in low serum,protected from cell death
